Results are given in words; binding and its absence hold for the method and conditions named. Binding seen in cells or lysates may run through a third protein. Here binding means that the protein was enriched with, or labelled near, the bait; the list need not be complete. Where a sequence is shown, tags or fusion partners need not be part of it.
Target: T1, Flag-FBXO2 (F-box only protein 2), stably expressed in human NP cells (UniProt Q9UK22)
T1 sequence: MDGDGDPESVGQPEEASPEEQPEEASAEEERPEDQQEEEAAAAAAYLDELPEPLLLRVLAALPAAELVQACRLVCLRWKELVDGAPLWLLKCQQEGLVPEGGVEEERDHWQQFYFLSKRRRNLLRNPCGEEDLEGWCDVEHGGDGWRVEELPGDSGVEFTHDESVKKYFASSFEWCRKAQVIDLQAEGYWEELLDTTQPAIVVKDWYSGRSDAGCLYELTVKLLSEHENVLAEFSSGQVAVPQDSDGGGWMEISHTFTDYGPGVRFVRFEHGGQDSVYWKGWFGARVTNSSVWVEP
Test: affinity purification with mass spectrometry; lysate of human NP cells stably expressing Flag-FBXO2 or empty vector; IP buffer (100 mM NaCl, 20 mM Tris-HCl pH 8.0, 0.5 mM EDTA, 0.5% NP-40); ANTI-FLAG M2 Affinity Gel overnight at 4 °C; SDS-PAGE, Coomassie, MS

Amino acid sequences for entries named in this document (tags omitted). Residues count along the entry.
UniProt P80188, residues 21-198: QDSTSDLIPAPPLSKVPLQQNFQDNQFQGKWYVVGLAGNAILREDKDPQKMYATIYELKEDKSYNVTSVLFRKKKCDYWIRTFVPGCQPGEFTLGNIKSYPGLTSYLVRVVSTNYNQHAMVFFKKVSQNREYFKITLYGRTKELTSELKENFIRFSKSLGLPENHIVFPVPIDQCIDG

binding: binds
Substance: lipocalin-2 (LCN2), endogenous in human NP cells (from UniProt P80188 21-198)

Reference: paper PMC12462960
